These are yes or no findings as the source states them, for the method shown. Some binding calls cover weakened binding; strength is not graded here.

Experiment [1] addresses RAF-1 kinase (UniProt P04049). Nature of the experiment: inferred from displacement of RAF-1 from the V7 immunocomplex in peptide-treated T cells.
Experiment [2] addresses RAF-1 kinase (UniProt P04049). Nature of the experiment: T cells exposed to the peptide; immunoprecipitation studies.

Regarding KLSTLRSNTRRRRRRR, the binding entry with RAF-1 kinase [1] and in the experiment with RAF-1 kinase [2] was “binds” throughout.
